Results published in publication PMC11005723, “Development of Complementary Photo‐arginine/lysine to Promote Discovery of Arg/Lys hPTMs Interactomes” (Advanced Science, 2024).
Further values from the same series stand in other lists.

Tested on: HEK293T nuclear lysates
Assay: SILAC‐based pull‐down proteomics H4K5me2/H4K5 (probes 7/5)
Format: binding, human
Conditions: for E6 log2 (H4K5me2/H4K5): run E6; for F6 log2 (H4K5me2/H4K5): run F6

probe 7: H4K5me2 peptide probe with photo‐arginine R(dz) and K(biotin) (SGRGKGGKGLGKGGK; photo-arginine R(dz) at 3; dimethyl-lysine at 5; K(biotin) at 15)
E6 log2 (H4K5me2/H4K5) (protein A0A1X7SBZ2 DDX17): 0.3284
F6 log2 (H4K5me2/H4K5) (protein A0A1X7SBZ2 DDX17): 0.2858
E6 log2 (H4K5me2/H4K5) (protein A0A3B3IRI2 CTPS1): 0.2716
F6 log2 (H4K5me2/H4K5) (protein A0A3B3IRI2 CTPS1): 0.175
E6 log2 (H4K5me2/H4K5) (protein A0A087WUK2 HNRNPDL): 0.3167
F6 log2 (H4K5me2/H4K5) (protein A0A087WUK2 HNRNPDL): 0.2835
E6 log2 (H4K5me2/H4K5) (protein A0A087WWS1 THOC1): 0.2097
F6 log2 (H4K5me2/H4K5) (protein A0A087WWS1 THOC1): 0.02318
E6 log2 (H4K5me2/H4K5) (protein A0A087WX29 TARDBP): 0.3505
F6 log2 (H4K5me2/H4K5) (protein A0A087WX29 TARDBP): 0.3556
E6 log2 (H4K5me2/H4K5) (protein A0A286YF22 PHGDH): 0.3667
F6 log2 (H4K5me2/H4K5) (protein A0A286YF22 PHGDH): 0.4108
E6 log2 (H4K5me2/H4K5) (protein A0A494C1G8 SP3): 0.2575
F6 log2 (H4K5me2/H4K5) (protein A0A494C1G8 SP3): -0.03927
E6 log2 (H4K5me2/H4K5) (protein B1AK87 CAPZB): 0.3528
F6 log2 (H4K5me2/H4K5) (protein B1AK87 CAPZB): 0.3183
E6 log2 (H4K5me2/H4K5) (protein B5MDQ0 ERCC6L): 0.3213
F6 log2 (H4K5me2/H4K5) (protein B5MDQ0 ERCC6L): 0.08647
E6 log2 (H4K5me2/H4K5) (protein B7Z7P8 ETF1): 0.3032
F6 log2 (H4K5me2/H4K5) (protein B7Z7P8 ETF1): 0.3922
E6 log2 (H4K5me2/H4K5) (protein B7ZAR1 CCT5): 0.2917
F6 log2 (H4K5me2/H4K5) (protein B7ZAR1 CCT5): 0.4373
E6 log2 (H4K5me2/H4K5) (protein D6R9P3 HNRNPAB): 0.3354
F6 log2 (H4K5me2/H4K5) (protein D6R9P3 HNRNPAB): -0.05686
E6 log2 (H4K5me2/H4K5) (protein E9PCY7 HNRNPH1): 0.3601
F6 log2 (H4K5me2/H4K5) (protein E9PCY7 HNRNPH1): 0.3078
E6 log2 (H4K5me2/H4K5) (protein E9PG73 PPIG): 0.288
F6 log2 (H4K5me2/H4K5) (protein E9PG73 PPIG): -0.669
E6 log2 (H4K5me2/H4K5) (protein E9PJD9 RPL27A): 0.3067
F6 log2 (H4K5me2/H4K5) (protein E9PJD9 RPL27A): -0.08318
E6 log2 (H4K5me2/H4K5) (protein F5H783 STIP1): 0.2176
F6 log2 (H4K5me2/H4K5) (protein F5H783 STIP1): 0.1355
E6 log2 (H4K5me2/H4K5) (protein F8W1R7 MYL6): 0.2038
F6 log2 (H4K5me2/H4K5) (protein F8W1R7 MYL6): 0.06067
E6 log2 (H4K5me2/H4K5) (protein H0YDJ3 PRPF4B): 0.2441
F6 log2 (H4K5me2/H4K5) (protein H0YDJ3 PRPF4B): -0.4152
E6 log2 (H4K5me2/H4K5) (protein I3L0M3 MAZ): 0.3234
F6 log2 (H4K5me2/H4K5) (protein I3L0M3 MAZ): -0.1208
E6 log2 (H4K5me2/H4K5) (protein J3QT28 BUB3): 0.2499
F6 log2 (H4K5me2/H4K5) (protein J3QT28 BUB3): 0.415
E6 log2 (H4K5me2/H4K5) (protein O15042 U2SURP): 0.249
F6 log2 (H4K5me2/H4K5) (protein O15042 U2SURP): 0.1825
E6 log2 (H4K5me2/H4K5) (protein O43390 HNRNPR): 0.2428
F6 log2 (H4K5me2/H4K5) (protein O43390 HNRNPR): 0.04676
E6 log2 (H4K5me2/H4K5) (protein O43776 NARS): 0.362
F6 log2 (H4K5me2/H4K5) (protein O43776 NARS): 0.5639
E6 log2 (H4K5me2/H4K5) (protein O43929 ORC4): 0.2563
F6 log2 (H4K5me2/H4K5) (protein O43929 ORC4): 0.2733
E6 log2 (H4K5me2/H4K5) (protein O60934 NBN): 0.2231
F6 log2 (H4K5me2/H4K5) (protein O60934 NBN): -0.0703
E6 log2 (H4K5me2/H4K5) (protein O75131 CPNE3): 0.231
F6 log2 (H4K5me2/H4K5) (protein O75131 CPNE3): 0.1031
E6 log2 (H4K5me2/H4K5) (protein O94906 PRPF6): 0.334
F6 log2 (H4K5me2/H4K5) (protein O94906 PRPF6): -0.2379
E6 log2 (H4K5me2/H4K5) (protein O95232 LUC7L3): 0.2019
F6 log2 (H4K5me2/H4K5) (protein O95232 LUC7L3): 0.2014
E6 log2 (H4K5me2/H4K5) (protein O96019 ACTL6A): 0.2097
F6 log2 (H4K5me2/H4K5) (protein O96019 ACTL6A): 0.562
E6 log2 (H4K5me2/H4K5) (protein O96028 WHSC1): 0.3043
F6 log2 (H4K5me2/H4K5) (protein O96028 WHSC1): 0.2369
E6 log2 (H4K5me2/H4K5) (protein P07195 LDHB): 0.3858
F6 log2 (H4K5me2/H4K5) (protein P07195 LDHB): 0.3065
E6 log2 (H4K5me2/H4K5) (protein P07355 ANXA2): 0.2408
F6 log2 (H4K5me2/H4K5) (protein P07355 ANXA2): 0.08198
E6 log2 (H4K5me2/H4K5) (protein P08621 SNRNP70): 0.1791
F6 log2 (H4K5me2/H4K5) (protein P08621 SNRNP70): -0.07961
E6 log2 (H4K5me2/H4K5) (protein P09936 UCHL1): 0.3837
F6 log2 (H4K5me2/H4K5) (protein P09936 UCHL1): 0.4055
E6 log2 (H4K5me2/H4K5) (protein P10809 HSPD1): 0.2112
F6 log2 (H4K5me2/H4K5) (protein P10809 HSPD1): 0.1765
E6 log2 (H4K5me2/H4K5) (protein P11142 HSPA8): 0.2979
F6 log2 (H4K5me2/H4K5) (protein P11142 HSPA8): 0.3312
E6 log2 (H4K5me2/H4K5) (protein P11586 MTHFD1): 0.2893
F6 log2 (H4K5me2/H4K5) (protein P11586 MTHFD1): -0.1283
E6 log2 (H4K5me2/H4K5) (protein P13639 EEF2): 0.2414
F6 log2 (H4K5me2/H4K5) (protein P13639 EEF2): 0.2692
E6 log2 (H4K5me2/H4K5) (protein P14618 PKM): 0.2929
F6 log2 (H4K5me2/H4K5) (protein P14618 PKM): 0.3389
E6 log2 (H4K5me2/H4K5) (protein P17987 TCP1): 0.2432
F6 log2 (H4K5me2/H4K5) (protein P17987 TCP1): 0.2331
E6 log2 (H4K5me2/H4K5) (protein P22087 FBL): 0.2496
F6 log2 (H4K5me2/H4K5) (protein P22087 FBL): 0.1529
E6 log2 (H4K5me2/H4K5) (protein P22102 GART): 0.3572
F6 log2 (H4K5me2/H4K5) (protein P22102 GART): 0.1465
E6 log2 (H4K5me2/H4K5) (protein P23526 AHCY): 0.3481
F6 log2 (H4K5me2/H4K5) (protein P23526 AHCY): 0.5326
E6 log2 (H4K5me2/H4K5) (protein P25205 MCM3): 0.2192
F6 log2 (H4K5me2/H4K5) (protein P25205 MCM3): -0.008369
E6 log2 (H4K5me2/H4K5) (protein P25398 RPS12): 0.2818
F6 log2 (H4K5me2/H4K5) (protein P25398 RPS12): 0.2555
E6 log2 (H4K5me2/H4K5) (protein P27348 YWHAQ): 0.2059
F6 log2 (H4K5me2/H4K5) (protein P27348 YWHAQ): 0.3151
E6 log2 (H4K5me2/H4K5) (protein P30041 PRDX6): 0.2843
F6 log2 (H4K5me2/H4K5) (protein P30041 PRDX6): 0.3778
E6 log2 (H4K5me2/H4K5) (protein P30101 PDIA3): 0.2983
F6 log2 (H4K5me2/H4K5) (protein P30101 PDIA3): 0.2113
E6 log2 (H4K5me2/H4K5) (protein P33993 MCM7): 0.3416
F6 log2 (H4K5me2/H4K5) (protein P33993 MCM7): 0.3599
E6 log2 (H4K5me2/H4K5) (protein P35249 RFC4): 0.4005
F6 log2 (H4K5me2/H4K5) (protein P35249 RFC4): 0.3707
E6 log2 (H4K5me2/H4K5) (protein P36873 PPP1CC): 0.2147
F6 log2 (H4K5me2/H4K5) (protein P36873 PPP1CC): 0.5752
E6 log2 (H4K5me2/H4K5) (protein P41091 EIF2S3): 0.22
F6 log2 (H4K5me2/H4K5) (protein P41091 EIF2S3): 0.4328
E6 log2 (H4K5me2/H4K5) (protein P42166 TMPO): 0.1875
F6 log2 (H4K5me2/H4K5) (protein P42166 TMPO): 0.1804
E6 log2 (H4K5me2/H4K5) (protein P43246 MSH2): 0.1997
F6 log2 (H4K5me2/H4K5) (protein P43246 MSH2): 0.3888
E6 log2 (H4K5me2/H4K5) (protein P43487 RANBP1): 0.2108
F6 log2 (H4K5me2/H4K5) (protein P43487 RANBP1): 0.05649
E6 log2 (H4K5me2/H4K5) (protein P50990 CCT8): 0.3576
